The data set is described as follows: Fluorine removal experiment (residual fluorine concentration of filtrate by ion concentration meter). To be noted: for Residual fluorine concentration: HF solution 1,000 ppm (experimental value 970 ppm), reacted 30 minutes. As to the method: In order to confirm the fluorine removal rate using the powder or solution prepared in Examples 1 to 3, a fluorine removal experiment was performed by the following method, and the residual fluorine concentration of the filtrate remaining after the experiment was measured using an ion concentration meter and is shown in Tables 2 to 4. At this time, a Metrohm 930 compact IC Flex model from Metrohm was used as the ion concentration meter.
A 50% hydrofluoric acid (HF) solution with a concentration of 1,000 ppm was prepared, and so that the molar ratio of calcium ion:fluoride ion is 1:2, 2:2, 10.56 g and 21.12 g of the mono calcium citrate powder recovered in Example 1 were mixed with 1 L of water to make a solution, the hydrofluoric acid and the solution were reacted for 30 minutes, and the results are shown in Table 2.
A 50% hydrofluoric acid (HF) solution with a concentration of 1,000 ppm was prepared, 4.75 g, 9.5 g, and 19.1 g of the tricalcium citrate powder recovered in Example 2 were mixed with 1 L of water so that the molar ratio of calcium ion:fluoride ion was 1:2, 2:2, and 4:2 to form a slurry, the hydrofluoric acid and the slurry were reacted for 30 minutes, and the results are shown in Table 3. (Tricalcium citrate (C12H10Ca3O14) contains 3 moles of calcium ions per mole, so ⅓ of the theoretical amount is added.)
A 50% hydrofluoric acid (HF) solution with a concentration of 1,000 ppm was prepared, the solution in which the shells and citric acid were dissolved prepared in Example 3 was mixed with 1 L of water and reacted for 30 minutes, and the results are shown in Table 4.

The mark [1] stands for this setting: molar ratio calcium ion:fluoride ion 1:2.
Where [2] appears, read: molar ratio calcium ion:fluoride ion 2:2.

This note sets out measurements from US20230265037A1, “METHOD FOR MAN[…] CALCIUM CITRATE BY USING SHELL AND APPLICATION THEREOF” (KOREA RESEARCH INSTITUTE OF CHEMICAL TECHNOLOGY, priority 2020, published 2023).

With `O=C([O-])CC(O)(CC(=O)O)C(=O)O.O=C([O-])CC(O)(CC(=O)O)C(=O)O.[Ca+2]` [Example 1, mono calcium citrate], the Residual fluorine concentration reads like this: under setting [1], 7.3 ppm; under setting [2], 2.2 ppm. Also, the “residual concentration of fluorine (summary)” value (summary of Tables 2 and 3) was no more than 10 ppm.
Regarding `O=C([O-])CC(O)(CC(=O)[O-])C(=O)[O-].O=C([O-])CC(O)(CC(=O)[O-])C(=O)[O-].[Ca+2].[Ca+2].[Ca+2]` [Example 2, tricalcium citrate], the Residual fluorine concentration by setting is: under setting [1], 23 ppm; under setting [2], 16.2 ppm; (molar ratio calcium ion:fluoride ion 4:2) 16.5 ppm.
